# From the supplement of paper PMC11060735
# Structures can show the parent of a compound that is named as a salt. ± gives the standard deviation of the averaged measurements. The full ranking holds about 1,800 compounds; the median of “GFP- (p16Ink4a-) cell count relative to negative-control wells” is about 0.99, and the lowest 2% start at about 0.5. Some of the results follow.
# System: mouse p16Ink4a+/- lung fibroblasts (INKBRITE, bleomycin-injured)
# Assay: GFP- (p16Ink4a-) cell count relative to negative-control wells (fold of vehicle); higher = more p16Ink4a- cells surviving
# Settings: 1 µM; 3 days
row,SMILES,GFP-
1,CNC1CCCN(c2c(F)cc3c(=O)c(C(=O)O)cn(C4CC4)c3c2OC)C1 (centres undefined) [Balofloxacin],0.875
2,Cc1cc(Cn2cnc3c2C[C@@H](C(=O)O)N(C(=O)C(c2ccccc2)c2ccccc2)C3)ccc1N(C)C,1.16
3,NS(=O)(=O)C#Cc1ccccc1 [Pifithrin],1.2
4,C/C(O)=C(\C#N)C(=O)Nc1ccc(C(F)(F)F)cc1 [Teriflunomide],0.938
5,CCOc1cc2ncc(C#N)c(Nc3ccc(F)c(Cl)c3)c2cc1NC(=O)/C=C/CN(C)C [Pelitinib],0.891
6,O=C(c1ccccc1)c1ccc2n1CCC2C(=O)O (centres undefined) [Ketorolac],1.03
7,CC1=CC(=O)c2ccccc2C1=O [Menadione],1.02
8,COc1cc(N2CCC(N3CCN(C)CC3)CC2)ccc1Nc1ncc(Cl)c(Nc2ccccc2S(=O)(=O)C(C)C)n1,1.03
9,CCS(=O)(=O)c1cccc(-c2cc(C(=O)NC3CCN(C)CC3)c(C)c3[nH]c4ncc(C)cc4c23)c1,0.945 ± 0.063
10,CNC(=O)c1cc(Oc2ccc(NC(=O)Nc3cc(C(C)(C)C)nn3-c3ccc4ncccc4c3)c(F)c2)ccn1 [Rebastinib],1
11,CCN1CC(CCN2CCOCC2)C(c2ccccc2)(c2ccccc2)C1=O (centres undefined) [Doxapram],1.1
12,N=C(N)NS(=O)(=O)c1ccc(N)cc1 [Sulfaguanidine],0.912
13,C[C@]12CC[C@H](O)CC1=CCC1C2CC[C@]2(C)C(n3cnc4ccccc43)=CCC12 (some centres undefined) [Galeterone],1.11
14,COc1ccc(-c2ccc3c(N4CCOC[C@@H]4C)nc(N4CCOC[C@@H]4C)nc3n2)cc1CO,0.537
15,c1cnc2cc3c(cc2n1)C1CNCC3C1 [Varenicline Tartrate],0.907
16,CC1CNc2c(cccc2S(=O)(=O)N[C@@H](CCCN=C(N)N)C(=O)N2CC[C@@H](C)C[C@@H]2C(=O)O)C1 (some centres undefined) [Argatroban],1.09
17,C[C@H](CCC(=O)O)[C@H]1CC[C@H]2[C@@H]3C[C@H](O)[C@@H]4C[C@H](O)CC[C@]4(C)[C@H]3CC[C@]12C [Hyodeoxycholic acid (HDCA)],0.901
18,C[C@@H](CN1CC(=O)NC(=O)C1)N1CC(=O)NC(=O)C1 [Dexrazoxane],0.899
19,O=C1c2c(O)cccc2[C@H]([C@@H]2O[C@H](CO)[C@@H](O)[C@H](O)[C@H]2O)c2cc(CO)cc(O)c21 [Aloin],0.815
20,O=C(Nc1cccc(Cl)c1)c1ccccn1,0.899
21,O=C1NC(=O)/C(=C/c2ccc3nccc(-c4ccncc4)c3c2)S1,0.686

# A different layout for four compounds above.
row	SMILES	GFP-
9	CCS(=O)(=O)c1cccc(-c2cc(C(=O)NC3CCN(C)CC3)c(C)c3[nH]c4ncc(C)cc4c23)c1	0.945 ± 0.063
10	CNC(=O)c1cc(Oc2ccc(NC(=O)Nc3cc(C(C)(C)C)nn3-c3ccc4ncccc4c3)c(F)c2)ccn1 [Rebastinib]	1
11	CCN1CC(CCN2CCOCC2)C(c2ccccc2)(c2ccccc2)C1=O (centres undefined) [Doxapram]	1.1
12	N=C(N)NS(=O)(=O)c1ccc(N)cc1 [Sulfaguanidine]	0.912

# (further entries)

row,SMILES,GFP-
1,Cc1ccc2c(c1)C(=O)[C@]1(O)CCN(c3ccccc3)C1=N2 [(S)-blebbistatin],0.867
2,Cc1ncc([N+](=O)[O-])n1CC(C)O (centres undefined) [Secnidazole],1.16
3,C[C@@H]1O[C@@H](O[C@H]2[C@H](Oc3cc(O)c(C(=O)CCc4ccc(O)cc4)c(O)c3)O[C@H](CO)[C@@H](O)[C@@H]2O)[C@H](O)[C@H](O)[C@H]1O [Naringin Dihydrochalcone],1.01
4,NC(=O)c1ncn([C@@H]2O[C@H](CO)[C@@H](O)[C@@H]2O)c1O [Mizoribine],1.12
5,CS(=O)(=O)N1CCc2c(-c3cnc(N)nc3)nc(N3CCOCC3)nc21,0.715
6,CN1CCN(C(=O)c2cc3cc(Cl)ccc3[nH]2)CC1,1.05
7,O=c1cc(-c2ccc(O)c(O)c2)oc2cc(O)cc(O)c12 [Luteolin],0.833
8,Cc1cc(C)nc(NS(=O)(=O)c2ccc(N)cc2)n1 [Sulfamethazine],0.853
9,Cn1c(=O)cc(N2CCC[C@@H](N)C2)n(Cc2cc(F)ccc2C#N)c1=O [Trelagliptin],0.941
10,CN1CCN(CCOc2cc(OC3CCOCC3)c3c(Nc4c(Cl)ccc5c4OCO5)ncnc3c2)CC1 [Saracatinib],0.812
11,c1ccc(NCc2ccc(CNc3ccccn3)cc2)nc1,1.06
12,O=C(Nc1cc(C(F)(F)F)ccc1N1CCCCC1)c1ccncc1,1.17
13,CO[C@H]1C[C@@H]2CC[C@@H](C)[C@@](O)(O2)C(=O)C(=O)N2CCCC[C@H]2C(=O)O[C@H]([C@H](C)C[C@@H]2CC[C@@H](O)[C@H](OC)C2)CC(=O)[C@H](C)/C=C(\C)[C@@H](O)[C@@H](OC)C(=O)[C@H](C)C[C@H](C)/C=C/C=C/C=C/1C [Rapamycin],0.71
14,Cc1cc(C)c2c(c1)[C@@H](N(Cc1cc(C(F)(F)F)cc(C(F)(F)F)c1)c1nnn(C)n1)CCCN2C[C@H]1CC[C@H](C(=O)O)CC1 [Evacetrapib],0.993
15,Cc1ccc(N(CC2=NCCN2)c2cccc(O)c2)cc1 [Phentolamine],0.958
16,COc1cc(-c2cc(-c3cccc(O)c3)cnc2N)cc(OC)c1OC,0.951
17,O=c1cc(N2CCOCC2)oc2c(-c3cccc4c3sc3ccccc34)cccc12,0.967
18,Cc1nc(N)sc1-c1ccnc(Nc2ccc(N3CCOCC3)cc2)n1,0.57 ± 0.078
19,O=c1ccc2ccc(O)c(O)c2o1 [Daphnetin],1.02
20,O=c1ccc2ccccc2o1,1.09
21,Cc1nc(C(=O)NCC(=O)O)c(O)c2ccc(Oc3ccccc3)cc12,0.913 ± 0.055

row,SMILES,GFP-
1,CC(C)n1c(/C=C/[C@@H](O)C[C@@H](O)CC(=O)O)c(-c2ccc(F)cc2)c2ccccc21 [Fluvastatin],0.656
2,COc1ccc([C@H]2CNC(=O)C2)cc1OC1CCCC1 [(S)-Rolipram],0.954
3,OCCn1cc(-c2ccc3c(c2)CC/C3=N\O)c(-c2ccncc2)n1,1.28
4,N#CC(c1ccc(Cl)cc1)c1c(Cl)cc(-n2ncc(=O)[nH]c2=O)cc1Cl (centres undefined) [Diclazuril],1.1
5,CCCCc1ncc(/C=C(\Cc2cccs2)C(=O)O)n1Cc1ccc(C(=O)O)cc1 [Eprosartan],0.961
6,OCc1ccccc1O[C@@H]1O[C@H](CO)[C@@H](O)[C@H](O)[C@H]1O [Salicin],0.937
7,COc1cc(OC)c(NC(=O)Nc2cc(C)on2)cc1Cl,1.01
8,COc1cc(NC(=O)c2ccccn2)ccc1Cl,1.08
9,CC(C)(CO)[C@@H](O)C(=O)NCCC(=O)O [Pantothenic Acid],0.992
10,Cc1ccc(S(=O)(=O)Cc2nc(-c3ccc(C(=O)NCc4cccnc4)cc3)oc2C)cc1,0.921
11,FC(F)(F)c1ccc(/C=C/c2nc(COc3ccc(CCCCn4ccnn4)cc3)co2)cc1 [Mubritinib],1.02
12,O=C(O)P(=O)(O)O [Foscarnet],1.06
13,Nc1ccn([C@@H]2O[C@H](CO)[C@@H](O)[C@H]2O)c(=O)n1 [Cytidine],0.904
14,COc1cc(NC(=O)c2ccc(-c3ccc(Cl)cc3)o2)cc(OC)c1,1.02
15,CC1Cc2ccccc2N1NC(=O)c1ccc(Cl)c(S(N)(=O)=O)c1 (centres undefined) [Indapamide],0.939
16,Nc1nc(O)c2ncn(COCCO)c2n1 [Aciclovir],0.983
17,Cc1ccc(=O)n(-c2ccccc2)c1 [Pirfenidone],1.14
18,CC1(C)CCC2=C(O1)c1ccccc1C(=O)C2=O [beta-Lapachone],1.08
19,CCc1cccc(CC)c1NC(=O)N1Cc2[nH]nc(NC(=O)c3ccc(N4CCN(C)CC4)cc3)c2C1,1.02 ± 0.27
20,CCOc1ccccc1O[C@H](c1ccccc1)[C@H]1CNCCO1 [Reboxetine],1.08
21,COc1ccc(-n2nc(C(N)=O)c3c2C(=O)N(c2ccc(N4CCCCC4=O)cc2)CC3)cc1 [Apixaban],0.895

row,SMILES,GFP-
1,CCOC(=O)[C@H](CCc1ccccc1)N[C@H]1CCc2ccccc2N(CC(=O)O)C1=O [Benazepril],1.01
2,COc1ccc(-c2nc(N3CCOCC3)c3sc(CN(C)c4ncc(C(=O)NO)cn4)cc3n2)cn1 [Fimepinostat],0.491 ± 0.025
3,CC(C)(C)c1cc(C(C)(C)C)c(NC(=O)c2cnc3ccccc3c2O)cc1O [Ivacaftor],1.1
4,Nc1nc(OCc2cc(Br)cs2)c2[nH]cnc2n1 [Lomeguatrib],1.02 ± 0.11
5,C=CC(=O)Nc1cccc(Nc2nc(Nc3ccc(Oc4ccnc(C(=O)NC)c4)cc3)ncc2F)c1,0.949
6,COCCCN1CCC(NC(=O)c2cc(Cl)c(N)c3c2OCC3)CC1 [Prucalopride],1.16
7,NC[C@H](O)c1ccc(O)c(O)c1 [Norepinephrine],1.23
8,O=C(Nc1ccccc1)N1CCN(c2nc(-c3ccccc3)ns2)CC1,1.01
9,CN1CCN(S(=O)(=O)c2ccc(-c3cnc(N)c(C(=O)Nc4cccnc4)n3)cc2)CC1,0.998
10,C=CC(=O)Nc1ccc2ncnc(Nc3cccc(Br)c3)c2c1,0.994
11,CCC(C)(Oc1ccc(C2(c3ccc(OC(C)(CC)C(=O)O)cc3)CCCCC2)cc1)C(=O)O (centres undefined) [Clinofibrate],0.881
12,NC(=O)Nc1cc(-c2cccc(F)c2)sc1C(=O)N[C@H]1CCCNC1,0.751
13,O=C(NCCN1CCOCC1)c1ccc(Cl)cc1 [Moclobemide],0.85
14,c1coc(CNc2ncnc3[nH]cnc23)c1 [Kinetin],0.99
15,Oc1ccc(-c2nc(-c3ccc(F)cc3)c(-c3ccncc3)[nH]2)cc1,1.02
16,Cc1cc(C(C)Nc2ccccc2)c2nc(N3CCOCC3)cc(=O)n2c1 (centres undefined),0.905
17,O=NN(CCCl)C(=O)NC1CCCCC1 [Lomustine],1.02
18,CO/N=C(/C(=O)N[C@@H]1C(=O)N2C(C(=O)O)=C(CSC(=O)c3ccco3)CS[C@H]12)c1csc(N)n1 [Ceftiofur HCl],1.04
19,O=C(Nc1ccc(-c2ccnc(Nc3ccc(N4CCOCC4)cc3)n2)cc1)[C@@H]1CCCN1,1.047 ± 0.0043
20,COC(=O)[C@H](Cc1ccccc1)NC(=O)[C@@H](N)CC(=O)O [Aspartame],0.966
21,CCNC(=O)c1noc(-c2cc(C(C)C)c(O)cc2O)c1-c1ccc(CN2CCOCC2)cc1 [Luminespib (NVP-AUY922)],0.542
